The target in the test is T1, His6-MBP-LEM (LEM-domain of human emerin) (human) (UniProt P50402).
T1 sequence: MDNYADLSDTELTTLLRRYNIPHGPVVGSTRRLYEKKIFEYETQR
Put plainly: ELISA; ELISA-type HTS assay: MBP-LEM (10 pmol) coated on a high bind plate, BAF (5 pmol) in PBST added with or without compound, then ATTO 425-labelled 270 bp DNA; read-out is the fluorescence of the DNA retained through BAF on the LEM-coated surface; RT; without or with 2 mM GSH; both purified.

No constants are given. Whether binding was seen depends on the method and setting. Some entries that bind do so weakly or less than the wild type. Sequences can lack the tags named with a protein.

B1: barrier-to-autointegration factor (BAF), wild type, dephosphorylated and tag-less (protein, UniProt O75531 1-89)
chain: MTTSQKHRDFVAEPMGEKPVGSLAGIGEVLGKKLEERGFDKAYVVLGQFLVLKKDEDLFREWLKDTCGANAKQSRDCFGCLREWCDAFL
Consider B1, for which the binding entry was “binds”.

The values are drawn from paper PMC7378220.
